Source: the supplement of paper PMC7666118
Some of the results follow.

Amino acid sequences for entries named in this document (tags omitted). A change or cut given only in a name is not applied to a line headed by its entry.
UniProt Q9NYM9: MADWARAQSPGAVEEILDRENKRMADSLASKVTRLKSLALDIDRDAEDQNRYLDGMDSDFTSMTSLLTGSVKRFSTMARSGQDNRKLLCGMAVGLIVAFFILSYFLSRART
UniProt Q5W111: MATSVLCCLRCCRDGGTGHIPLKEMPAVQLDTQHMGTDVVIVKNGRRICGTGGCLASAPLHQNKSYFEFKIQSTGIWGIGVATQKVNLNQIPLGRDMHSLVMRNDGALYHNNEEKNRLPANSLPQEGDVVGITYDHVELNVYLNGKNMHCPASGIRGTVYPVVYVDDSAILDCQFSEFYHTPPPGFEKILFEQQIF
UniProt O43861: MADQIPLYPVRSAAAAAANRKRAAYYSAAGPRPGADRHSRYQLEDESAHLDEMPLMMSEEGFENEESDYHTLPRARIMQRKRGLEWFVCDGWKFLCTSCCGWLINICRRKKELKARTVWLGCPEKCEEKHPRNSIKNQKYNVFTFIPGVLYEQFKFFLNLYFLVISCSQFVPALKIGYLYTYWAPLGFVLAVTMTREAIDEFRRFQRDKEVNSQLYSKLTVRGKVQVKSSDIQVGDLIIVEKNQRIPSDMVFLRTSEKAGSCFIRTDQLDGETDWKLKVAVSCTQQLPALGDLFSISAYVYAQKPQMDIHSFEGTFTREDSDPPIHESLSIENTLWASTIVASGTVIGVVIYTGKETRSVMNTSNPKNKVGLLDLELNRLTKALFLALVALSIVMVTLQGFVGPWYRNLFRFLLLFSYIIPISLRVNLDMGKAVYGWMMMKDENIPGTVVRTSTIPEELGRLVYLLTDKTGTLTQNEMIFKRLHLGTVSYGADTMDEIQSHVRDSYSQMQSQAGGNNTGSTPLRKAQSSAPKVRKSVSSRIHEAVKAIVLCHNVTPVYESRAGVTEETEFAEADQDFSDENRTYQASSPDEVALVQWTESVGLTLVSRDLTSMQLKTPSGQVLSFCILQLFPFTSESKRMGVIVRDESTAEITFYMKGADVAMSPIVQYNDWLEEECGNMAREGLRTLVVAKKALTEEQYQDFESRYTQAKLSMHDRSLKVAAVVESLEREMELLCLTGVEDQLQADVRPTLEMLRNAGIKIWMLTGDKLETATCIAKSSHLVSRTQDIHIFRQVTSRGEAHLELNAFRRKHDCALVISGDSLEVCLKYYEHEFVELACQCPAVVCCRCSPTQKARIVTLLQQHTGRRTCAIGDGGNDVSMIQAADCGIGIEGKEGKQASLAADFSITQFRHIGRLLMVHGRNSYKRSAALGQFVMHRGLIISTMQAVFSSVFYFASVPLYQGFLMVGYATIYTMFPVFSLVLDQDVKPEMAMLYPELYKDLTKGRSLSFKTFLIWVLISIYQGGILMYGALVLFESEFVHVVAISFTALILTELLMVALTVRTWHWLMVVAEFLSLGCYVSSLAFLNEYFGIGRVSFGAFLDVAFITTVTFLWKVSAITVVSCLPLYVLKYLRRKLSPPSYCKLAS
UniProt P32121, whole entry: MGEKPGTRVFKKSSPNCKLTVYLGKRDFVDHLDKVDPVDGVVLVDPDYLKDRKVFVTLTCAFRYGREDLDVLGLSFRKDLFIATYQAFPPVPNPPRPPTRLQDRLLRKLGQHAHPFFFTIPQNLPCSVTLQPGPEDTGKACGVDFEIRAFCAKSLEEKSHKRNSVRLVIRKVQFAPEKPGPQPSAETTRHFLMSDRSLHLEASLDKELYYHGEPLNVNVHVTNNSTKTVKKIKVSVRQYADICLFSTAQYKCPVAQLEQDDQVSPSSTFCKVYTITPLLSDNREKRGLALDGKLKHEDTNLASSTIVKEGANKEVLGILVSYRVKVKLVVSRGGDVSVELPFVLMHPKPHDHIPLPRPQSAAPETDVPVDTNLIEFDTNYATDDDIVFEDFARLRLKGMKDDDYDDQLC
UniProt O60512: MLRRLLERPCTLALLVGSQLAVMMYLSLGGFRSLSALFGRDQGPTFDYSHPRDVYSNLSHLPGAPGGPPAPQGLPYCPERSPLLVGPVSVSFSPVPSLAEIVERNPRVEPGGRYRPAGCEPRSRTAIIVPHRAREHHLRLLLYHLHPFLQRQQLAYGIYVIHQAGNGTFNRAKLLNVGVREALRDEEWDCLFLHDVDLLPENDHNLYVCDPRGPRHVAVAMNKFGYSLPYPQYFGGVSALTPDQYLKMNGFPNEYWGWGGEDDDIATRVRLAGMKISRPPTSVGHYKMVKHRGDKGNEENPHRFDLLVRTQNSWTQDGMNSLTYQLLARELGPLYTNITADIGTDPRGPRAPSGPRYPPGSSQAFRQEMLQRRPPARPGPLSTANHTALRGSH
UniProt Q96C57: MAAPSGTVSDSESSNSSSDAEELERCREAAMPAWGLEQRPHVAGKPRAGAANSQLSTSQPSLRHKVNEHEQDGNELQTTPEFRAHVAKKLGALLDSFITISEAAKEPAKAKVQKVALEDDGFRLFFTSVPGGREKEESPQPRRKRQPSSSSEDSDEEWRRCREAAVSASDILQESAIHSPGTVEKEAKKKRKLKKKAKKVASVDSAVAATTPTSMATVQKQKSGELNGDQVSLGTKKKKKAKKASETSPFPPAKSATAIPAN
UniProt Q9NWL6: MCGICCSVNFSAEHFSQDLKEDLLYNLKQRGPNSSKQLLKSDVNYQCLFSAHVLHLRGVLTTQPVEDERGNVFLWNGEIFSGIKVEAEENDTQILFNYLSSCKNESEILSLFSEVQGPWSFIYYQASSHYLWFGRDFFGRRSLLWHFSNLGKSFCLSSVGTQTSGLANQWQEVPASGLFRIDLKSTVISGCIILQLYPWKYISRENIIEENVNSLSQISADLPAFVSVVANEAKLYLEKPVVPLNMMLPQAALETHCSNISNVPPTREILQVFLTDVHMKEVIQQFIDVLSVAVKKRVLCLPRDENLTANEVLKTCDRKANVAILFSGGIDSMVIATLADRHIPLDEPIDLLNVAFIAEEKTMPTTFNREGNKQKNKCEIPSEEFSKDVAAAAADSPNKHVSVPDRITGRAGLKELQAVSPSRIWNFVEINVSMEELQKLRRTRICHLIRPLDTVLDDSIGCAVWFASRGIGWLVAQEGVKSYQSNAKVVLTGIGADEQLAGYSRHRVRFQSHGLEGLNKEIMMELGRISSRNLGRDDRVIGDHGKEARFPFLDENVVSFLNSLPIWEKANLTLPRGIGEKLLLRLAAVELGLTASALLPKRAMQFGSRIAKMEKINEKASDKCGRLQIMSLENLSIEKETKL
UniProt Q96G01: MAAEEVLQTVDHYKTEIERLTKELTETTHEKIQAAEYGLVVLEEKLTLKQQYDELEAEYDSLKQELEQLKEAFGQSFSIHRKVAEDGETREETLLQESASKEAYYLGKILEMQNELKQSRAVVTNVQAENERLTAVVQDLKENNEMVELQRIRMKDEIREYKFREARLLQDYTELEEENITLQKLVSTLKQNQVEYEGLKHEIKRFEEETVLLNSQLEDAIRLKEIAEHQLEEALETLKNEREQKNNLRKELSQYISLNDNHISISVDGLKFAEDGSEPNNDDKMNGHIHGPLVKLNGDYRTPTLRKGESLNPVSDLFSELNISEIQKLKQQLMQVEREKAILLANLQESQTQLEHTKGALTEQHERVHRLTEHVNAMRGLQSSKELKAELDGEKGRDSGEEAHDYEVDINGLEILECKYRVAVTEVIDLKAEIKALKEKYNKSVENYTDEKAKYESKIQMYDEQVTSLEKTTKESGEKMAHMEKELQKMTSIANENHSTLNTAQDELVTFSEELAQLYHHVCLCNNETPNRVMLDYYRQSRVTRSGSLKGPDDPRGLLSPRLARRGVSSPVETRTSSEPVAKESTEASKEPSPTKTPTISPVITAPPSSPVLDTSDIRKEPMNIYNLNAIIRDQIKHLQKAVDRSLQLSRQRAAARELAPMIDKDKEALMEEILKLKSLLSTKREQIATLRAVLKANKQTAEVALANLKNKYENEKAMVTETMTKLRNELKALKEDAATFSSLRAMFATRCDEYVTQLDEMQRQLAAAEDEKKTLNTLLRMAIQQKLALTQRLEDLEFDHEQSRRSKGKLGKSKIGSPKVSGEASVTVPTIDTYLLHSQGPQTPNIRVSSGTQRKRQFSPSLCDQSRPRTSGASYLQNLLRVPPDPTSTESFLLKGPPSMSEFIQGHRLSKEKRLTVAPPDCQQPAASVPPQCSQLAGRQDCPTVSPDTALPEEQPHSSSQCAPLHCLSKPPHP
UniProt Q92934: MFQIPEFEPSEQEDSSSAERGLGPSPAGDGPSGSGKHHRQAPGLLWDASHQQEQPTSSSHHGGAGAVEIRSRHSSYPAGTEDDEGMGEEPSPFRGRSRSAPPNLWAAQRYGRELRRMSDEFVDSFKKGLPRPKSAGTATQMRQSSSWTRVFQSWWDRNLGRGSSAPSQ
UniProt O75787, whole entry: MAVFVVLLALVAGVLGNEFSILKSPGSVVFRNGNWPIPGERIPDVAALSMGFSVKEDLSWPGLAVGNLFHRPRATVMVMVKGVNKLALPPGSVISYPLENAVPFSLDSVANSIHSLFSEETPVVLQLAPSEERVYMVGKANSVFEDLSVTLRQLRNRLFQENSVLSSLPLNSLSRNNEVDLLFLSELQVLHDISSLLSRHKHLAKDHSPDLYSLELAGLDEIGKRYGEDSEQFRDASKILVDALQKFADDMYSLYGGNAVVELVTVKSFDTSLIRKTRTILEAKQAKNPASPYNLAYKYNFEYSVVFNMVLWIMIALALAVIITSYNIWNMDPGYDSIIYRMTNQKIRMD
UniProt O75531: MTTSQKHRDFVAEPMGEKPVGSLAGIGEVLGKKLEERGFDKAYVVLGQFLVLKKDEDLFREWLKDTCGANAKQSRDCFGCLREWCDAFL
UniProt Q9H8W3: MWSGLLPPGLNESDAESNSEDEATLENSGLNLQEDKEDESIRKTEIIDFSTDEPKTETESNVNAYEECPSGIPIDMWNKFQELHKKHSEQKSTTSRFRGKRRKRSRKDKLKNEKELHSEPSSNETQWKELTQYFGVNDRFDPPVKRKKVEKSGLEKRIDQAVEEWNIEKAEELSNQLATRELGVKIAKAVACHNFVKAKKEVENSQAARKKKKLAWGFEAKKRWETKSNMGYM
UniProt Q99941: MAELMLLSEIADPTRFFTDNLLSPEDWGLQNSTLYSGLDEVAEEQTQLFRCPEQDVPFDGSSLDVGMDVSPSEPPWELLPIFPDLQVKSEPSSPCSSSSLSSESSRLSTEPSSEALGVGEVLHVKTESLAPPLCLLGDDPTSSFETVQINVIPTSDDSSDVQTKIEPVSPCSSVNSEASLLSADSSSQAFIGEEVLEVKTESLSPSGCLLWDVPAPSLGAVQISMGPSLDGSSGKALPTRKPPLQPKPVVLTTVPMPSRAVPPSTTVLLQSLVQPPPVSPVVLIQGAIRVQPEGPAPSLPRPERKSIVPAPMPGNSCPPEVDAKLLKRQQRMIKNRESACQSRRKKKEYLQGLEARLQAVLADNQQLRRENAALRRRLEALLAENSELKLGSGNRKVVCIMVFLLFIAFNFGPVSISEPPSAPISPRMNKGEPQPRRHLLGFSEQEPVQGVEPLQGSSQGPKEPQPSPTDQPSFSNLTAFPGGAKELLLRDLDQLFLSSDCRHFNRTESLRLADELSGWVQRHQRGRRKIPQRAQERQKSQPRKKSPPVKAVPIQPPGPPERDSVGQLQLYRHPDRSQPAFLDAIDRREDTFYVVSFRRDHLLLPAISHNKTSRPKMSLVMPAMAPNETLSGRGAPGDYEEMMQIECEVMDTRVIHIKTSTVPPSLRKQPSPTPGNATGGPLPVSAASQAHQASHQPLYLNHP
UniProt Q9HB07: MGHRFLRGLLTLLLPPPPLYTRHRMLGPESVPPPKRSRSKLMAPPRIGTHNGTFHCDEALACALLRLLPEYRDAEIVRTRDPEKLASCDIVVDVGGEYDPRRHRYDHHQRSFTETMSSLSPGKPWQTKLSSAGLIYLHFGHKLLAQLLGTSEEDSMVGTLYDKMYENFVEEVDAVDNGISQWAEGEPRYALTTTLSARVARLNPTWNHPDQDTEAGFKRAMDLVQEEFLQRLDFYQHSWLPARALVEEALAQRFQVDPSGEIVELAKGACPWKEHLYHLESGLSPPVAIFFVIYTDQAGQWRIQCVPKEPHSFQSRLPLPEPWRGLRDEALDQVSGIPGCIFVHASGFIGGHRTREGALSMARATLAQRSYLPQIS
UniProt Q8WY22: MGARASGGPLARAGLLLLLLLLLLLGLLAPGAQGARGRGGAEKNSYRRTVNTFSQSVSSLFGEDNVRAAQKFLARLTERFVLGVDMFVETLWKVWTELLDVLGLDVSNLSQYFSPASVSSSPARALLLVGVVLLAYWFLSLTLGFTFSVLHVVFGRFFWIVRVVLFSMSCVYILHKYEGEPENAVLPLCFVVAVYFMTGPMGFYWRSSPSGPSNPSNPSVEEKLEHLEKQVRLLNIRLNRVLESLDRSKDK
UniProt P10415, whole entry: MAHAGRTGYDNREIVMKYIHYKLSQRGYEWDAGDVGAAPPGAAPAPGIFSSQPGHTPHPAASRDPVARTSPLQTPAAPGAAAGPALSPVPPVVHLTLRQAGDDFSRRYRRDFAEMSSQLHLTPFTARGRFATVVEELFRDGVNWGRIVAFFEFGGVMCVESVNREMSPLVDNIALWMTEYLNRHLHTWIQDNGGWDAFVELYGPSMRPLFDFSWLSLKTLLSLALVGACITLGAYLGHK

Each target was assayed with COc1ccc(Cn2ccc3ccc(C(=O)NO)cc32)cc1 (assay: dose-dependent thermal stabilisation call (2D-TPP, DLPTP, 10% FDR) (binary (1 = stabilised)); higher = stabilised by the compound). Details: system: HL-60 intact cells; concentration range 0.04-10 µM.
With ASS1 (UniProt P00966) the “dose-dependent thermal stabilisation call” value was inactive: 0. With BET1L (UniProt Q9NYM9) the “dose-dependent thermal stabilisation call” value was inactive: 0. In the case of BCR (UniProt P11274), the “dose-dependent thermal stabilisation call” value is reported as inactive: 0. For C13ORF1 (UniProt Q5W111), the “dose-dependent thermal stabilisation call” value was inactive: 0. ATP9B (UniProt O43861) was tested, and the “dose-dependent thermal stabilisation call” value was inactive: 0. With ARRB2 (UniProt P32121) the “dose-dependent thermal stabilisation call” value was inactive: 0. For B4GALT3 (UniProt O60512), the “dose-dependent thermal stabilisation call” value was inactive: 0. With C12ORF43 (UniProt Q96C57) the “dose-dependent thermal stabilisation call” value was inactive: 0. For BAT5 (UniProt O95870), the “dose-dependent thermal stabilisation call” value was inactive: 0. C11ORF84 (UniProt Q9BUA3) was tested, and the “dose-dependent thermal stabilisation call” value was inactive: 0. In the case of ASNSD1 (UniProt Q9NWL6), the “dose-dependent thermal stabilisation call” value is reported as inactive: 0. In the case of ARPC2 (UniProt O15144), the “dose-dependent thermal stabilisation call” value is reported as inactive: 0. For ASXL2 (UniProt Q76L83), the “dose-dependent thermal stabilisation call” value was inactive: 0. For BICD1 (UniProt Q96G01), the “dose-dependent thermal stabilisation call” value was inactive: 0. In the case of BAD (UniProt Q92934), the “dose-dependent thermal stabilisation call” value is reported as inactive: 0. With ATP6AP2 (UniProt O75787) the “dose-dependent thermal stabilisation call” value was inactive: 0. For BNIP1 (UniProt Q12981), the “dose-dependent thermal stabilisation call” value was inactive: 0. ATG2A (UniProt Q2TAZ0) was tested, and the “dose-dependent thermal stabilisation call” value was inactive: 0. For BANF1 (UniProt O75531), the “dose-dependent thermal stabilisation call” value was inactive: 0. In the case of C10ORF84 (UniProt Q9H8W3), the “dose-dependent thermal stabilisation call” value is reported as inactive: 0. BMS1 (UniProt Q14692) was tested, and the “dose-dependent thermal stabilisation call” value was inactive: 0. In the case of ATF6B (UniProt Q99941), the “dose-dependent thermal stabilisation call” value is reported as inactive: 0. C10ORF104 (UniProt Q96DE5) was tested, and the “dose-dependent thermal stabilisation call” value was inactive: 0. With BAP1 (UniProt Q92560) the “dose-dependent thermal stabilisation call” value was inactive: 0. Ataxin-10 was tested, and the “dose-dependent thermal stabilisation call” value was inactive: 0. ARMET (UniProt P55145) was tested, and the “dose-dependent thermal stabilisation call” value was inactive: 0. With C12ORF10 (UniProt Q9HB07) the “dose-dependent thermal stabilisation call” value was inactive: 0. With BAG5 (UniProt Q9UL15) the “dose-dependent thermal stabilisation call” value was inactive: 0. With BAZ1A (UniProt Q9NRL2) the “dose-dependent thermal stabilisation call” value was inactive: 0. For BAK1 (UniProt Q16611), the “dose-dependent thermal stabilisation call” value was inactive: 0. With BRI3BP (UniProt Q8WY22) the “dose-dependent thermal stabilisation call” value was inactive: 0. With BMP2K (UniProt Q9NSY1) the “dose-dependent thermal stabilisation call” value was inactive: 0. With ATP5J (UniProt P18859) the “dose-dependent thermal stabilisation call” value was inactive: 0. In the case of BCL2 (UniProt P10415), the “dose-dependent thermal stabilisation call” value is reported as inactive: 0. For BRMS1 (UniProt Q9HCU9), the “dose-dependent thermal stabilisation call” value was inactive: 0. For ARV1 (UniProt Q9H2C2), the “dose-dependent thermal stabilisation call” value was inactive: 0. ARMC10 (UniProt Q8N2F6) was tested, and the “dose-dependent thermal stabilisation call” value was inactive: 0. With ATP6V1A (UniProt P38606) the “dose-dependent thermal stabilisation call” value was inactive: 0.
